Test results as given in PubChem BioAssay AID504834 (National Center for Advancing Translational Sciences (NCATS), 2011).
About 22,000 (6.9%) of roughly 320,000 compounds were called active. Inconclusive results, whose numbers are uncertain, are shown with a selection of clear calls. The call rests on the fitted dose curve; in most records, active means well fitted inhibition curve with a large enough effect; inconclusive means small, poorly fitted or top-dose-only effect, or another doubt; inactive means no such curve, though single readings can be large or run the other way. Potencies of inconclusive entries are doubtful fits and often do not repeat.

Assay: Primary qHTS for delayed death inhibitors of the malarial parasite plastid, 96 hour incubation
Details: P. falciparum luciferase reporter growth; series mostly up to 28.7 µM
In short: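 Plates of compound plus infected erythrocytes (2% hematocrit, 0.05% parasitemia final) incubate 96 hours, 37 C, 5% CO2. Detection reagent added; reduced luminescence from the parasites' luciferase reporter flags inhibition.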
Potency means the concentration at half of the fitted maximal effect.

Row | Structure (SMILES) | Potency
1 | COc1ccc(-c2nn(-c3ccccc3)cc2CNCCN2CCOC2=O)c(F)c1 | inactive
2 | CCOC(=O)N1CCN(C(=O)C2CC(=O)N(c3ccccc3)C2)CC1 (centres undefined) | inactive
3 | CC(C)CCc1noc(CN2CCN(c3ccc(Cl)cn3)CC2)n1 | inconclusive: 11.7 µM [inhibitor, single point]
4 | Cc1cccc(NC(=S)NCc2ccccc2Cl)c1C | inconclusive: 10.4 µM [inhibitor, partial curve, poor fit]
5 | CCOC(=O)CN1CC23C=CC(O2)C(C(=O)Nc2ccc(OC)cc2OC)C3C1=O (centres undefined) | inconclusive: 8.28 µM [inhibitor, partial curve, poor fit]
6 | Cc1ccc(S(=O)(=O)Nc2cccc(C(=O)N3CCN(c4ccccc4O)CC3)c2)cc1F | inconclusive: 13.1 µM [inhibitor, single point]
7 | CCOc1ccccc1CN1CCC(Oc2ccc(C(=O)NCc3ccccn3)cc2)CC1 | inconclusive: 11.7 µM [inhibitor, partial curve, poor fit]
8 | Cc1ccc(CNC(=O)c2nn(C)c(C)c2[N+](=O)[O-])cc1 | inactive
9 | Cc1ccc(CCNc2ccccc2C)cn1 | inactive
10 | COc1ccccc1-c1oc2ccccc2c1C#CC(C)(C)O | inconclusive: 4.65 µM [inhibitor, single point]
11 | O=C(Nc1ccc(S(=O)(=O)N2CCCCCC2)cc1)c1[nH]ncc1[N+](=O)[O-] | inconclusive: 1.65 µM [inhibitor, full curve]
12 | O=C(OCC(=O)N1CCOCC1)c1ccc[nH]c1=O | inactive
13 | COc1cc(OC)c(S(=O)(=O)Nc2ccccc2NC(=O)CN2CCOCC2)cc1NC(C)=O | inactive
14 | COC(=O)C1=C(c2ccccc2OCc2ccccc2)C[C@@H]2CC[C@H]1N2C(=O)NCc1ccc(N(C)C)cc1 | inconclusive: 1.85 µM [inhibitor, full curve, poor fit]
15 | COc1ccc(NC(=O)CN2C(=O)C(C)Oc3ccccc32)cc1OC (centres undefined) | inconclusive: 10.4 µM [inhibitor, single point]
16 | CCOC(=O)c1c(C)oc2c1c(CN1CCN(C(=O)OCC)CC1)c(O)c1ccccc12 | inactive
17 | COc1cc(SC)ccc1C(=O)Nc1c(C)cccc1C | inconclusive: 11.7 µM [inhibitor, single point]
18 | C=CCn1c(=O)c(C(=O)Nc2cc(C)ccn2)c(O)c2ccccc21 | inconclusive: 18.5 µM [inhibitor, single point]
19 | CC(C)(C)C(=O)NC(=S)NNC(=O)C(c1ccccc1)c1ccccc1 | inconclusive: 13.1 µM [inhibitor, single point]

Entries 17–18 from above:
Row | Structure (SMILES) | Potency
17 | COc1cc(SC)ccc1C(=O)Nc1c(C)cccc1C | inconclusive: 11.7 µM [inhibitor, single point]
18 | C=CCn1c(=O)c(C(=O)Nc2cc(C)ccn2)c(O)c2ccccc21 | inconclusive: 18.5 µM [inhibitor, single point]
